Values are relative to the signal before dosing, not to a vehicle control; the signal also falls without drug.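 Labels refer to human fibroblasts, largely primary: uterine (C12385, HUF), lung (H6013), bone (Hs27A), adrenal (HADF), skin (WS1), plus mammary HMF and breast cancer-associated Hs343T. Cancer lines are basal-like or mesenchymal-like triple-negative breast cancer. The paper counts as hits responses shifting over 3x the replicate standard deviation. The tissue of the other fibroblasts is not given here.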
Test system: MDAMB436
Experiment: relative JC-1 red fluorescence (viability) vs pre-drug, coculture with fibroblast (fraction); higher = more viable cancer cells
Experimental: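 JC-1 labelled TNBC cells cocultured 1:1 (1,500 cells each) with CellTrace Violet stained primary or stromal fibroblasts in 384-well plates in FluoroBrite medium, treated with one of 42 anticancer drugs at 0.1, 1, 10 or 100 uM. JC-1 red fluorescence (mitochondrial integrity in cancer cells only) was read by plate reader every 8 h for 72 h. Values are normalised to each well's pre-drug value. The stock of one drug was tenfold lower, so its dose labels may be too high.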

Nc1ncn([C@@H]2O[C@H](CO)[C@@H](O)[C@H]2O)c(=O)n1 [Azacitidine]
relative JC-1 red fluorescence
Details	8 h	16 h	24 h	32 h	40 h	48 h	56 h	64 h	72 h
0.1 µM, coculture fibroblast: C12385	0.7609	0.721	0.697	0.623	0.59	0.581	0.577	0.571	0.587
0.1 µM, coculture fibroblast: H6013	0.812	0.79	0.789	0.79	0.788	0.824	0.797	0.793	0.754
0.1 µM, coculture fibroblast: H6019	0.7401	0.7131	0.686	0.617	0.589	0.567	0.541	0.51	0.49
0.1 µM, coculture fibroblast: H6076	0.72	0.696	0.7246	0.708	0.727	0.717	0.757	0.766	0.759
0.1 µM, coculture fibroblast: H6231	0.7	0.683	0.729	0.668	0.684	0.661	0.666	0.657	0.652
0.1 µM, coculture fibroblast: HADF	0.831	0.811	0.795	0.76	0.7501	0.77	0.729	0.725	0.692
0.1 µM, coculture fibroblast: HCFa	0.793	0.773	0.753	0.73	0.728	0.761	0.711	0.707	0.661
0.1 µM, coculture fibroblast: HCPF	0.749	0.7392	0.779	0.73	0.737	0.718	0.715	0.714	0.715
0.1 µM, coculture fibroblast: HHSteC	0.844	0.86	0.87	0.855	0.88	0.866	0.862	0.855	0.815
0.1 µM, coculture fibroblast: HMF	0.7678	0.744	0.757	0.722	0.726	0.71	0.74	0.731	0.735
0.1 µM, coculture fibroblast: HPFa	0.8426	0.8266	0.81437	0.7815	0.7935	0.8215	0.756	0.739	0.6762
0.1 µM, coculture fibroblast: HUF	0.78	0.706	0.658	0.589	0.537	0.517	0.501	0.486	0.482
0.1 µM, coculture fibroblast: Hs5	0.7244	0.7273	0.745	0.708	0.73	0.713	0.747	0.727	0.739
0.1 µM, coculture fibroblast: Hs27A	0.776	0.77	0.773	0.763	0.758	0.839	0.754	0.752	0.688
0.1 µM, coculture fibroblast: Hs343T	0.749	0.721	0.725	0.69	0.697	0.68	0.691	0.691	0.695
0.1 µM, coculture fibroblast: WS1	0.786	0.742	0.731	0.66	0.636	0.623	0.616	0.603	0.606
1 µM, coculture fibroblast: C12385	0.784	0.675	0.68	0.611	0.574	0.554	0.546	0.536	0.543
1 µM, coculture fibroblast: H6013	0.804	0.738	0.7133	0.697	0.68	0.69	0.652	0.631	0.58
1 µM, coculture fibroblast: H6019	0.7194	0.669	0.647	0.568	0.534	0.5116	0.474	0.43813	0.407
1 µM, coculture fibroblast: H6076	0.725	0.668	0.666	0.616	0.596	0.57	0.582	0.58	0.56
1 µM, coculture fibroblast: H6231	0.7613	0.674	0.6684	0.592	0.566	0.535	0.5233	0.49	0.4599
1 µM, coculture fibroblast: HADF	0.7987	0.701	0.676	0.659	0.639	0.656	0.605	0.604	0.57
1 µM, coculture fibroblast: HCFa	0.79	0.712	0.682	0.65	0.627	0.63414	0.5761	0.5551	0.5029
1 µM, coculture fibroblast: HCPF	0.773	0.714	0.702	0.638	0.618	0.579	0.553	0.529	0.504
1 µM, coculture fibroblast: HHSteC	0.8108	0.756	0.71	0.673	0.663	0.668	0.607	0.579	0.526
1 µM, coculture fibroblast: HMF	0.753	0.69	0.673	0.635	0.619	0.589	0.577	0.562	0.545
1 µM, coculture fibroblast: HPFa	0.8929	0.8111	0.8016	0.766	0.7587	0.7745	0.695	0.6766	0.6102
1 µM, coculture fibroblast: HUF	0.8109	0.696	0.668	0.592	0.538	0.5	0.472	0.447	0.445
1 µM, coculture fibroblast: Hs5	0.763	0.72	0.715	0.669	0.657	0.611	0.635	0.605	0.6
1 µM, coculture fibroblast: Hs27A	0.796	0.739	0.694	0.683	0.663	0.7241	0.6235	0.62	0.5536
1 µM, coculture fibroblast: Hs343T	0.726	0.657	0.632	0.587	0.562	0.528	0.522	0.498	0.498
1 µM, coculture fibroblast: WS1	0.754	0.685	0.683	0.605	0.566	0.553	0.535	0.519	0.516
10 µM, coculture fibroblast: C12385	0.7548	0.735	0.738	0.671	0.639	0.62	0.612	0.598	0.603
10 µM, coculture fibroblast: H6013	0.854	0.837	0.812	0.791	0.755	0.755	0.706	0.686	0.643
10 µM, coculture fibroblast: H6019	0.749	0.732	0.718	0.6483	0.6341	0.625	0.609	0.593	0.582
10 µM, coculture fibroblast: H6076	0.705	0.644	0.635	0.589	0.578	0.557	0.576	0.577	0.583
10 µM, coculture fibroblast: H6231	0.658	0.562	0.617	0.548	0.554	0.53	0.532	0.521	0.511
10 µM, coculture fibroblast: HADF	0.796	0.772	0.746	0.7235	0.7136	0.736	0.682	0.67	0.633
10 µM, coculture fibroblast: HCFa	0.767	0.737	0.725	0.703	0.692	0.721	0.674	0.669	0.623
10 µM, coculture fibroblast: HCPF	0.682	0.649	0.658	0.592	0.589	0.555	0.541	0.535	0.524
10 µM, coculture fibroblast: HHSteC	0.796	0.785	0.77	0.746	0.753	0.773	0.726	0.715	0.667
10 µM, coculture fibroblast: HMF	0.67	0.626	0.626	0.581	0.5611	0.531	0.537	0.513	0.51
10 µM, coculture fibroblast: HPFa	0.861	0.805	0.783	0.75	0.7468	0.7519	0.701	0.6861	0.6333
10 µM, coculture fibroblast: HUF	0.7959	0.723	0.705	0.639	0.596	0.564	0.548	0.5332	0.5238
10 µM, coculture fibroblast: Hs5	0.7294	0.695	0.701	0.637	0.6406	0.6017	0.6125	0.5841	0.582
10 µM, coculture fibroblast: Hs27A	0.7744	0.735	0.724	0.716	0.697	0.764	0.672	0.676	0.601
10 µM, coculture fibroblast: Hs343T	0.727	0.689	0.678	0.641	0.634	0.59	0.584	0.576	0.562
10 µM, coculture fibroblast: WS1	0.764	0.739	0.742	0.676	0.657	0.642	0.641	0.634	0.639
100 µM, coculture fibroblast: C12385	0.807	0.701	0.694	0.638	0.602	0.583	0.57	0.555	0.553
100 µM, coculture fibroblast: H6013	0.801	0.799	0.784	0.777	0.766	0.786	0.758	0.745	0.7172
100 µM, coculture fibroblast: H6019	0.751	0.698	0.694	0.645	0.635	0.641	0.637	0.654	0.673
100 µM, coculture fibroblast: H6076	0.672	0.615	0.61	0.557	0.535	0.506	0.513	0.5126	0.5128
100 µM, coculture fibroblast: H6231	0.7682	0.6985	0.659	0.617	0.583	0.544	0.53	0.512	0.494
100 µM, coculture fibroblast: HADF	0.85	0.859	0.866	0.7345	0.808	0.75	0.753	0.743	0.702
100 µM, coculture fibroblast: HCFa	0.773	0.762	0.748	0.7287	0.7244	0.749	0.692	0.694	0.647
100 µM, coculture fibroblast: HCPF	0.764	0.639	0.637	0.581	0.56	0.527	0.504	0.489	0.481
100 µM, coculture fibroblast: HHSteC	0.794	0.7677	0.74044	0.7102	0.7003	0.7195	0.6655	0.652	0.61
100 µM, coculture fibroblast: HMF	0.7256	0.663	0.646	0.606	0.593	0.55	0.5426	0.52	0.505
100 µM, coculture fibroblast: HPFa	0.8742	0.832	0.806	0.7789	0.782	0.804	0.735	0.733	0.685
100 µM, coculture fibroblast: HUF	0.834	0.754	0.748	0.689	0.657	0.635	0.619	0.611	0.61
100 µM, coculture fibroblast: Hs5	0.7356	0.672	0.671	0.6268	0.602	0.56	0.57	0.543	0.536
100 µM, coculture fibroblast: Hs27A	0.849	0.785	0.769	0.7587	0.757	0.821	0.7466	0.748	0.6711
100 µM, coculture fibroblast: Hs343T	0.704	0.669	0.656	0.613	0.595	0.56	0.528	0.507	0.492
100 µM, coculture fibroblast: WS1	0.798	0.698	0.713	0.66	0.624	0.613	0.609	0.587	0.583

From the supplement of paper PMC6078165
